According to the supplement of paper PMC12823440, “Inhibitors supercharge kinase turnover through native proteolytic circuits” (Nature, 2025):
Counter-ions that a name gives are not always drawn. The list shows a part of the results. The calls rarely recur for the same compound in another form.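 Kinases, fused to nanoluciferase, were expressed in K562 cells; luminescence was measured every 4 h from 2 to 18 h as percent of control (DMSO = 100%, positive control = 0%). A time point is decreased if signal falls significantly (2 sigma). Hits were called by the authors by a rule that is not shown; the count of time points alone does not decide it.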

The chains behind the UniProt entries cited, without tags or fusion partners. Where a name states a change or a piece, a line headed by the entry shows the natural chain unless it says otherwise.
UniProt Q9UM73: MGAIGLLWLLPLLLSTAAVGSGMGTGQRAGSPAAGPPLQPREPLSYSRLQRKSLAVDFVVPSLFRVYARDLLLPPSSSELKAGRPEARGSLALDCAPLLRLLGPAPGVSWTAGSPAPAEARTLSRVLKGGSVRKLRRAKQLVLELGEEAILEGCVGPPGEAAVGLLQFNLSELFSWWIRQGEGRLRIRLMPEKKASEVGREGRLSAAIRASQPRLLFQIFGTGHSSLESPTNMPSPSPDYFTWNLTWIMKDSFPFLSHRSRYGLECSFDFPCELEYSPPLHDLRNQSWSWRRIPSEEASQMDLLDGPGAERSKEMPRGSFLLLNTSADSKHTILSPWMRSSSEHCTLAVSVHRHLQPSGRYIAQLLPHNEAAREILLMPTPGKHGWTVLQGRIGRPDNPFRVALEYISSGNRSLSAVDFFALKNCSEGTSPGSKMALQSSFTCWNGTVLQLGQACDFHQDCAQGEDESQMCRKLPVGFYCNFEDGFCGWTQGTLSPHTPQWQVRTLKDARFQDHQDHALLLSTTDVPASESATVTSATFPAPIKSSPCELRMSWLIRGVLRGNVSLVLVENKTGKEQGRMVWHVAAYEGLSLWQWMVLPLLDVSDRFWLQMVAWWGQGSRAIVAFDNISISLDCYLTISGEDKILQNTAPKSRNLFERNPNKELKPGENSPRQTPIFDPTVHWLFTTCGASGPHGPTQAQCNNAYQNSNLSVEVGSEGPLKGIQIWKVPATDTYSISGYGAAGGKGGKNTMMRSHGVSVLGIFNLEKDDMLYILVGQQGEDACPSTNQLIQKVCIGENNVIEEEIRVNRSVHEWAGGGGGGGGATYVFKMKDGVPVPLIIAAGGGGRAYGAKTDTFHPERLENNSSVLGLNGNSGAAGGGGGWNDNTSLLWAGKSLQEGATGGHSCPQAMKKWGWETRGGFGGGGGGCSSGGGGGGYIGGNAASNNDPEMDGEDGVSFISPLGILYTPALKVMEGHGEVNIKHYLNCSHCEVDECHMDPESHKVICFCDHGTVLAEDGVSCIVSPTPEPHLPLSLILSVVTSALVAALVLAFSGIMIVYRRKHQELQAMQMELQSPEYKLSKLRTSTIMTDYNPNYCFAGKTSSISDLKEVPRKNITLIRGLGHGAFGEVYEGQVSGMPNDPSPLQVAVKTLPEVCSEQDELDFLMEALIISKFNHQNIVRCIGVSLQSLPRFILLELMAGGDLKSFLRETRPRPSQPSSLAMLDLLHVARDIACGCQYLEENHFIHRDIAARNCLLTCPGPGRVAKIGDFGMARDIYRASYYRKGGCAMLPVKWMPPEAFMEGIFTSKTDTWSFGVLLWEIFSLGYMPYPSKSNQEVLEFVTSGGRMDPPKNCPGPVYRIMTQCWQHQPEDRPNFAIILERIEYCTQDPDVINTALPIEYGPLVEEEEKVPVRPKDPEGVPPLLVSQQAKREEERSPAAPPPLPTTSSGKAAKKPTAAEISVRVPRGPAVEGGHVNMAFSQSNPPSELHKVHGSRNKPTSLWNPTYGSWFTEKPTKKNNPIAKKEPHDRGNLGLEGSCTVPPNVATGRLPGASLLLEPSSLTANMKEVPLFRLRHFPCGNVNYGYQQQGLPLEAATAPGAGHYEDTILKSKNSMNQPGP
UniProt P10398: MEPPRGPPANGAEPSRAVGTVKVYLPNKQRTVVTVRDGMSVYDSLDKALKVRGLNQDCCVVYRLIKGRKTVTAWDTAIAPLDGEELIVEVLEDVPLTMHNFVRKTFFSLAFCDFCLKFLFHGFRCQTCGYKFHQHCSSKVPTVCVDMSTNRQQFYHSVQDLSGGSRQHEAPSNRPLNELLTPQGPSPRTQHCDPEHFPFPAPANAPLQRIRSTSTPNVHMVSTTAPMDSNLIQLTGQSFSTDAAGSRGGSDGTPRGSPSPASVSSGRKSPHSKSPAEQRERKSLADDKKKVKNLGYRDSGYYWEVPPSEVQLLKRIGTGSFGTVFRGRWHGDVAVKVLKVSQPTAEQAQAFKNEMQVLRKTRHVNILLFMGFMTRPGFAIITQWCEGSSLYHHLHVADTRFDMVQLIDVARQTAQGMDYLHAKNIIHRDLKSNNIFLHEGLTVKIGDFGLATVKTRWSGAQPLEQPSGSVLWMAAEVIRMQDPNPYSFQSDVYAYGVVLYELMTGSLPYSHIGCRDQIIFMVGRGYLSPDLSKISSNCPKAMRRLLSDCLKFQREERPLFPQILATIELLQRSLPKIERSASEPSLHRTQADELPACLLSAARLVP
UniProt O14965: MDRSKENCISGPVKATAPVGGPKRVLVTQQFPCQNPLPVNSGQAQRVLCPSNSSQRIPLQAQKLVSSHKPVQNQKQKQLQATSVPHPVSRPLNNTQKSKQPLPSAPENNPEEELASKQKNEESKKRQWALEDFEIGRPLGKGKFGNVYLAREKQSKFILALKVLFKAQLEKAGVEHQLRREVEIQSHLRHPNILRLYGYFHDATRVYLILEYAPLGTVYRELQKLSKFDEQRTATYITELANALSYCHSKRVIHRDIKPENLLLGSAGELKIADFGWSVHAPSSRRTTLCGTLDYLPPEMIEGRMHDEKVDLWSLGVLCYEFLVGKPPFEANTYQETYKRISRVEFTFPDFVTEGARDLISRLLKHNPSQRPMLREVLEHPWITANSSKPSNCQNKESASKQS
UniProt Q96GD4, whole entry: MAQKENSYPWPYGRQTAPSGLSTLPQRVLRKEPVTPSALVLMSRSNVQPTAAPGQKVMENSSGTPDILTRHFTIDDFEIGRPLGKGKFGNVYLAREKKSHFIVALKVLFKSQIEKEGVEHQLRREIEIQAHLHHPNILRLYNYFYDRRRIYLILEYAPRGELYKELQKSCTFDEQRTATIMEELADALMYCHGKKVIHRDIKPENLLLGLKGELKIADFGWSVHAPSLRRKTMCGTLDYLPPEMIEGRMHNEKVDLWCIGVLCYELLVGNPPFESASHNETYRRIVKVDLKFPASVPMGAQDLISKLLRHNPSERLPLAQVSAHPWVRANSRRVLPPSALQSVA
UniProt Q9UQB9: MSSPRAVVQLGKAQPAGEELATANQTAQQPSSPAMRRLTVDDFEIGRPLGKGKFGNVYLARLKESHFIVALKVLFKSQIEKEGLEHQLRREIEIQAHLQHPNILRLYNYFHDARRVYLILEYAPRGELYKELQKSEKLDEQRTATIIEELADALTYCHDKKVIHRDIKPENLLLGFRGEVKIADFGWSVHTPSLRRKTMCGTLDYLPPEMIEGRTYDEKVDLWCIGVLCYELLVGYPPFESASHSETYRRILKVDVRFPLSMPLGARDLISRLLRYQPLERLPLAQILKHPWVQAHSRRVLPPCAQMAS
UniProt P51451: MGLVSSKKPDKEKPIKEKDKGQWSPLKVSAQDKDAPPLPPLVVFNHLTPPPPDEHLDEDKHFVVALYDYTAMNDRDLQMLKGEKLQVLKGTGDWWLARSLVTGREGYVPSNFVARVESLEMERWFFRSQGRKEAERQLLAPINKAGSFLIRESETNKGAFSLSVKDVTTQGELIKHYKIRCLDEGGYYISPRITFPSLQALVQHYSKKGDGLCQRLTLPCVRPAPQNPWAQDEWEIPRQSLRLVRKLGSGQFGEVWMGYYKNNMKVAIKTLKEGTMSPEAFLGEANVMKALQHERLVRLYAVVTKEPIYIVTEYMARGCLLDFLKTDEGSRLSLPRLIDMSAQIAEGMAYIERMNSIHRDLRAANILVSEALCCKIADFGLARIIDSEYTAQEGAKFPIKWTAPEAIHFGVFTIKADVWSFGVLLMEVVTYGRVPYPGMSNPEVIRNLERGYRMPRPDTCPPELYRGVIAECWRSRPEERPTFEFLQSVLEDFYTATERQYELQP
UniProt P51813: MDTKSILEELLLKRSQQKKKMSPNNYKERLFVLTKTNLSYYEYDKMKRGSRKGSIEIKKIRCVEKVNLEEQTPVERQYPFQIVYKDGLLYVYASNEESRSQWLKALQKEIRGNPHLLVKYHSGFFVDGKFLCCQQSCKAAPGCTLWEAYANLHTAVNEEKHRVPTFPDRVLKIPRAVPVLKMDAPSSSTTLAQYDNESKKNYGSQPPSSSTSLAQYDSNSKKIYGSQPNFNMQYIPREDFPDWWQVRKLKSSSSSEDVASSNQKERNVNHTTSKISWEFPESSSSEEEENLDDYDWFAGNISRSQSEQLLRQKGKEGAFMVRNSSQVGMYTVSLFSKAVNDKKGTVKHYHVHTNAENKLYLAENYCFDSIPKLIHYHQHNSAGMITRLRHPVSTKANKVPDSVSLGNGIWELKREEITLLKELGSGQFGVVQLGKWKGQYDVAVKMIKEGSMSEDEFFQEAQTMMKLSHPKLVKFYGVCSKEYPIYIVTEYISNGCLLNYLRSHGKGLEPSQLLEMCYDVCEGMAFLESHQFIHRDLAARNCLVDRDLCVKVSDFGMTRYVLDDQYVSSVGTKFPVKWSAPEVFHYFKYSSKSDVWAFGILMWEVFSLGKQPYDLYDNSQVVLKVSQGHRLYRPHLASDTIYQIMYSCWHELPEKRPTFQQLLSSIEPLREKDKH
UniProt P15056, whole entry, looked up: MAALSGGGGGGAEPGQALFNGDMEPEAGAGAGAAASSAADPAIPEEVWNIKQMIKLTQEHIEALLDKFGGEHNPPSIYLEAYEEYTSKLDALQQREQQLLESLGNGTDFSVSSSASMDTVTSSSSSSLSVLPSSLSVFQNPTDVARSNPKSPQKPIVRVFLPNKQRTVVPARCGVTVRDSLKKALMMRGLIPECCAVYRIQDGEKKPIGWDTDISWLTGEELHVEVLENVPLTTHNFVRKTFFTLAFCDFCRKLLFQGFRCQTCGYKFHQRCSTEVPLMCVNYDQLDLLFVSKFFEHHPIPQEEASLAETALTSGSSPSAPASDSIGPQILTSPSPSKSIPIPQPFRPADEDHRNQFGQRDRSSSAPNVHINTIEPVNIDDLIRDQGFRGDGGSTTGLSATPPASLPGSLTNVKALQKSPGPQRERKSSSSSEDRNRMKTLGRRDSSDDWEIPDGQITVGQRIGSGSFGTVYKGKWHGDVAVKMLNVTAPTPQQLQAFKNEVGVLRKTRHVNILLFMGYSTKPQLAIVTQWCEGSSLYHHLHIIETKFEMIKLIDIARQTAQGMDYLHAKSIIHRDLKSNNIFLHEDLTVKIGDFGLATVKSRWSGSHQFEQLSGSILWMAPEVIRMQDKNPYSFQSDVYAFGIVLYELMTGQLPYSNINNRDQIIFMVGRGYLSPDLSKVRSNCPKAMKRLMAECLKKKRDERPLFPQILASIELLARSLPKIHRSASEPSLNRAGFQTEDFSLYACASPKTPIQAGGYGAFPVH
UniProt Q06187: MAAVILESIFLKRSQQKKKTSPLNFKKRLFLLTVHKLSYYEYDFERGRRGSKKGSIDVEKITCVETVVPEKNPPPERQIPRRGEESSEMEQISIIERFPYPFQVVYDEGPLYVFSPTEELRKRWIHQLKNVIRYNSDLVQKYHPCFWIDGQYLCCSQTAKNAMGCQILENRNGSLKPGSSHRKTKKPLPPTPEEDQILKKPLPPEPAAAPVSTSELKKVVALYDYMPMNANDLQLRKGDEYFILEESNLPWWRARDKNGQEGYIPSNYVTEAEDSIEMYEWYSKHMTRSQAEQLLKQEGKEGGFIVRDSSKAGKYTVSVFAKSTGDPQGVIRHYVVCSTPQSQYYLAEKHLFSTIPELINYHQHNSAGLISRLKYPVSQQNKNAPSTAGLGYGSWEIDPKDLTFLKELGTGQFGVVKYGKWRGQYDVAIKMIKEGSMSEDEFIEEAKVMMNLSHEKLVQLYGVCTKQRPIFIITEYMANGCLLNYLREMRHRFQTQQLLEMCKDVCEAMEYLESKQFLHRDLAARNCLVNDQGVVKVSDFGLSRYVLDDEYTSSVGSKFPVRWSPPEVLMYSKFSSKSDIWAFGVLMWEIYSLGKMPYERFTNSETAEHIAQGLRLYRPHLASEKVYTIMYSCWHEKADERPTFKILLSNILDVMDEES

What was measured:
Assay in all cases: number of time points (of 5) at which kinase-Nluc abundance scored as decreased, DMSO-normalised (count); higher = more persistent destabilization
Conditions in all cases: K562; 2-18 h
ALK = ALK (UniProt Q9UM73)
ARAF = ARAF (UniProt P10398)
AURKA = AURKA (UniProt O14965)
AURKB = AURKB (UniProt Q96GD4)
AURKC = AURKC (UniProt Q9UQB9)
BLK = BLK (UniProt P51451)
BMX = BMX (UniProt P51813)
BRAF = BRAF (UniProt P15056)
BRAF_V600E = tested on: BRAF_V600E
BTK = BTK (UniProt Q06187)

Measured: number of time points

O=C(O)/C=C(\CCc1ccc(Cl)cc1)c1ccccc1 (10 µM)
0: all assays above

C=CC(=O)Nc1cc(Nc2nccc(-c3cn(C)c4ccccc34)n2)c(OCC(F)(F)F)nc1N(C)CCNC [AST5902  (trimesylate)] (2.5 µM)
3: AURKB | BLK
1: BRAF_V600E
0: all other assays above

CC(=O)Nc1nc(C)c(-c2cc(C)c3c(c2)CN([C@@H](C)C2CC2)C3=O)s1 (10 µM)
0: all assays above

Cn1c(N2CCO[C@@H](c3ccc(F)cc3)C2)nc(-c2ccncn2)cc1=O (10 µM)
0: all assays above

Cc1nc2c(NCc3cccc(S(C)(=O)=O)c3)nccn2c1-c1ccc(O)c(F)c1 (10 µM)
0: all assays above

N#Cc1cc(-c2ccnc(Nc3ccc(N4CCOCC4)cc3)n2)ccc1OC1CCOCC1 (10 µM)
3: BRAF
0: all other assays above

CO/N=C1/C(c2c(O)[nH]c3cc(Cl)c(Cl)cc23)=Nc2ccccc21 (10 µM)
0: all assays above

Cn1cc(C2=C(c3ccc(Cl)cc3Cl)C(=O)NC2=O)c2ccccc21 (10 µM)
0: all assays above

COc1c(O)cc(O)c2c(=O)cc(-c3ccccc3)oc12 [Wogonin] (10 µM)
0: all assays above

O=C(COc1ccc(Cl)cc1)NC1CCC(NC(=O)COc2ccc(Cl)cc2)CC1 (stereo not drawn) [ISRIB (trans-isomer)] (10 µM)
0: all assays above

C[C@@H]1COC(Nc2ccc3ncnc(Nc4ccc(OCc5nccs5)c(Cl)c4)c3c2)=N1 [Varlitinib] (10 µM)
3: BRAF_V600E
1: BMX
0: all other assays above

O=C(NCc1ccn[nH]1)c1cc([C@@H]2CCNC[C@H]2COc2ccc3c(c2)OCO3)ccc1F [GRK2-IN-1 (hydrochloride)] (10 µM)
0: all assays above

CNCc1cc(Oc2ccc3c(ccn3C(=O)Nc3cc(C(F)(F)F)n(C)n3)c2)ncn1 [Acrizanib] (10 µM)
4: BMX
0: all other assays above

C[C@@H]1CN(Cc2ccc(F)cc2)[C@@H](C)CN1C(=O)c1cc2c(C(=O)C(=O)N(C)C)cn(C)c2cc1Cl [Talmapimod] (10 µM)
0: all assays above

O=C(CCl)c1c[nH]c2ccccc12 (2.5 µM)
0: all assays above

Nc1[nH]nc2nnc(-c3c(-c4ccccc4)nn4ccccc34)cc12 (10 µM)
1: AURKA
0: all other assays above

COc1cc2nnc(C(N)=O)c(Nc3ccc(C)cc3F)c2cc1N1CCN(CCO)CC1 (2.5 µM)
0: all assays above

CNCc1ccccc1Sc1cccc2ccccc12 [IFN alpha-IFNAR-IN-1 (hydrochloride)] (10 µM)
0: ARAF | AURKC | BLK | BTK
1: BRAF
4: BMX
2: all other assays above

O=C(Nc1ccc(F)cc1F)C(NC(=S)Nc1cc(C(F)(F)F)cc(C(F)(F)F)c1)c1ccccc1 (racemic) (2.5 µM)
0: all assays above

NC(=O)c1ccccc1Nc1ccnc(Nc2cccc(O)c2)n1 (10 µM)
1: BLK | BRAF_V600E
3: AURKA | AURKB | BMX
0: all other assays above

O=C(Nc1ccc(Cl)cc1)C1CN(C(=O)c2cccc(-c3ccco3)c2)CC(F)(F)C1 (stereo not given) (2.5 µM)
0: all assays above

O=S(=O)(c1ccc(O)cc1O)N1Cc2cc(O)cc(O)c2C1 (10 µM)
0: all assays above

O=c1cc(-c2ccc(O[C@@H]3O[C@H](CO)[C@@H](O)[C@H](O)[C@H]3O)cc2)oc2cc(O)c([C@@H]3O[C@H](CO)[C@@H](O)[C@H](O)[C@H]3O[C@@H]3OC[C@H](O)[C@H](O)[C@H]3O)c(O)c12 [Vaccarin] (10 µM)
0: all assays above

COc1cc2nccc(Nc3cccc(Oc4ccccc4)c3)c2cc1OC (2.5 µM)
1: AURKA
0: all other assays above

Cc1ccc2c(NS(=O)(=O)c3ccccc3Cl)cccc2c1Oc1ncccc1-c1ccnc(N[C@H]2CCCNC2)n1 (2.5 µM)
0: all assays above

COCCNc1cc(NC(=O)N2CCCc3cc(CN4CCOCC4=O)c(C=O)nc32)ncc1C#N (10 µM)
0: all assays above

COc1ccc(Br)c(C=O)c1O [6-Bromo-2-hydroxy-3-methoxybenzaldehyde] (10 µM)
0: all assays above

COc1ccc(Cl)cc1N(CC(=O)Nc1ccc2c(c1)OCO2)S(=O)(=O)c1ccccc1 (2.5 µM)
0: all assays above

CN(C)C(=O)c1cc2cnc(Nc3ccc(N4CCN(CCCCNC(=O)COc5cccc6c5C(=O)N(C5CCC(=O)NC5=O)C6=O)CC4)cn3)nc2n1C1CCCC1 (stereo not given) (10 µM)
0: all assays above

CN1CCN(Cc2ccc(-c3cn(C4CCC(O)CC4)c4nc(NCCC5CC5)ncc34)cc2)CC1 (stereo not given) (2.5 µM)
2: BRAF_V600E
1: AURKA | BLK
0: all other assays above

Cn1cnc2c(F)c(Nc3ccc(Br)cc3F)c(C(=O)NOCCO)cc21 [Binimetinib] (10 µM)
4: AURKB
0: all other assays above

CNC(=O)CN1CCC(Oc2cc3c(Nc4cccc(Cl)c4F)ncnc3cc2OC)CC1 [Sapitinib] (10 µM)
0: all assays above

Cc1cnc(Cl)nc1-c1ccc(N(Cc2ccc(CNC(=O)C(F)F)cc2)C(=O)c2ccc(O)cc2O)cc1 (10 µM)
0: all assays above

Fc1ccc(Cl)cc1-c1nc(Nc2ccncc2)c2nccnc2n1 (10 µM)
0: all assays above

N#CC(=C(/N)Sc1ccccc1N)/C(C#N)=C(\N)Sc1ccccc1N (10 µM)
0: all assays above

CS[C@@]1(C(=O)Nc2ccc3[nH]nc(-c4ccc(OC(C)C)nc4)c3c2)CCN(CC(=O)N2CC=C(c3ccc(-c4ncn(C)n4)cc3)CC2)C1 (2.5 µM)
0: all assays above

Cc1ncc(-c2cc(F)c(O)c(F)c2)cc1-c1cc(F)c(O)c(F)c1 (10 µM)
0: all assays above

CN1C(=O)[C@@H](NC(=O)c2cc(Cc3ccccc3)on2)COc2ccccc21 (10 µM)
0: all assays above

Cc1cncc2cccc(S(=O)(=O)N3CCCNC[C@@H]3C)c12 [H-1152 (dihydrochloride)] (10 µM)
0: all assays above

COc1ccc2cc1Oc1ccc(cc1)C[C@H]1c3cc(c(OC)cc3CCN1C)Oc1c(O)c(OC)cc3c1[C@H](C2)N(C)CC3 [Fangchinoline] (2.5 µM)
0: all assays above

NCCNS(=O)(=O)c1ccc(Cl)c2ccncc12 [CKI-7 (free base)] (10 µM)
0: all assays above

CC(C)(Oc1ccc(Cl)cc1)C(=O)Nc1ccc(OCc2ccc(C#N)cc2)cc1 [AMPK activator 4] (10 µM)
0: all assays above

CCOc1cc(N2CCC(O)CC2)ccc1Nc1ncc2c(n1)N(C1CCCC1)CCC(=O)N2C (2.5 µM)
0: all assays above

CO[C@]1(C(=O)N[C@@H](C)c2ccc(-n3cc(F)cn3)nc2)CC[C@H](c2nc(C)cc(Nc3cc(C)[nH]n3)n2)CC1 [Pralsetinib] (10 µM)
0: all assays above

COc1ccc(-c2cc(=O)c3c(O)cc(O)cc3o2)cc1-c1c(O)cc(O)c2c(=O)cc(-c3ccc(O)cc3)oc12 [Bilobetin] (2.5 µM)
0: all assays above

Structures above that contain a CF3 group, in the order listed:
C=CC(=O)Nc1cc(Nc2nccc(-c3cn(C)c4ccccc34)n2)c(OCC(F)(F)F)nc1N(C)CCNC [AST5902  (trimesylate)] (2.5 µM)
3: AURKB | BLK
1: BRAF_V600E
0: all other assays above

CNCc1cc(Oc2ccc3c(ccn3C(=O)Nc3cc(C(F)(F)F)n(C)n3)c2)ncn1 [Acrizanib] (10 µM)
4: BMX
0: all other assays above

O=C(Nc1ccc(F)cc1F)C(NC(=S)Nc1cc(C(F)(F)F)cc(C(F)(F)F)c1)c1ccccc1 (racemic) (2.5 µM)
0: all assays above

Further records:

CCOC(=O)c1c(N2CCc3ccc(OC)cc3C2)oc(C=C2C=Nc3ncccc32)c1O (10 µM)
0: all assays above
